# The other results are listed elsewhere or left out.
# Test system: T1, CTL2-GFP (C. trachomatis L2/434/Bu, GFP-expressing)
# T1 construct: L2/434/Bu, GFP-expressing
# Parameters: species or system HeLa; Intracellular C. trachomatis growth in HeLa cells, bulk GFP fluorescence relative to DMSO
# Conditions: bulk GFP, single well; 28.5 h, 10 µM; inhibitor
row,Structure (SMILES),% of control remaining [%]
1,COc1ccc([N+](=O)[O-])cc1NC(=O)c1ccc(-c2cc3ccccc3oc2=O)cc1 [CBK267325],146.281
2,O=C(NCCc1cccs1)Nc1cc(C(F)(F)F)cc(C(F)(F)F)c1 [CBK043718],71.9211
3,O=c1c2c3c(sc2n2c(S)nnc2n1Cc1ccccc1)CN(Cc1ccccc1)CC3 [CBK262973],115.095
4,Cc1ncncc1C(=O)NCC1(c2ccccc2F)CCCC1 [CBK281411],105.949
5,CCn1c2ccccc2c2cc(CN3CCN(Cc4c[nH]c5ccccc45)CC3)ccc21 [CBK263167],138.032
6,C=CCNS(=O)(=O)c1ccc(NC(=O)Cc2cccc3ccccc23)cc1 [CBK269379],91.3423
7,CC(=O)Nc1ccc(CCNC(=O)NCc2nc(C3CC3)no2)cc1 [CBK306221],106.353
8,O=C(CNC(=O)c1ccccc1F)N/N=C/c1cccs1 [CBK261953],98.8218
9,c1ccc(CSc2nnc(COc3cccc4ccccc34)n2Cc2ccccc2)cc1 [CBK267215],118.639
10,COc1cccc(NC(=O)N[C@H]2[C@H](O)[C@@H](N3CCOCC3)[C@@H]3OC[C@H]2O3)c1 [CBK288821],130.985
11,CCOC(=O)CNc1nc(OC)cc(OC)n1 [CBK093392],91.7064
12,O=C(NCCCN1CCOCC1)c1ccccc1Br [CBK262602C],120.683
13,O=C(O)C1CCCN(C(=O)CCc2c[nH]c3ccccc23)C1 (stereo not drawn) [CBK286925],109.347
14,Clc1ccc(CNCc2cccnc2)cc1 [CBK086257C],144.918
15,CN1CCC2(CC1)SC(=O)Nc1ccc(Br)cc12 [CBK017821B],108.55
16,COc1ccc2[nH]c3c(c2c1)CCNC31CCCN(Cc2ccc(OC(F)(F)F)cc2)C1 (stereo not drawn) [CBK039387],90.2791
17,CS(=O)(=O)c1nc(-c2ccccc2)ns1 [CBK017338],147.77
18,Cc1ccc(C2(C(=O)NCCn3ccnc3C)CCOCC2)cc1 [CBK281858],122.138
19,COCC(=O)NC1CC(C)(C)Cc2c1cnn2-c1ccc(C)cc1 (stereo not drawn) [CBK282866],76.8753
20,Cc1cc(COc2nccnc2N2CCN(CC(N)=O)CC2)no1 [CBK084192],124.651
21,O=C1NC2(CCN(C(=O)Cc3ccsc3)CC2)Nc2ccccc21 [CBK283963],104.977
22,O=C(CN1CCN(C/C=C/c2ccccc2)CC1)Nc1ccc(C2CCCCC2)cc1 [CBK074497],95.8979
23,CCC(=O)N1CCN(CCCC(=O)c2ccc(F)cc2)CC1 [CBK025017C],138.827
24,Nc1ncnc2nc(-c3ccncc3)nn12 [CBK288550],143.703
25,O=C(O)C1CSC(c2cccc(Cl)c2Cl)N1 (stereo not drawn) [CBK077526],82.3042
26,O=C(CN1CCN(C(=O)C2COc3ccccc3O2)CC1)Nc1ccc2c(c1)OCCO2 (stereo not drawn) [CBK074777],88.1932

row,Structure (SMILES),% of control remaining [%]
1,O=c1n(C(c2ccccc2)c2ccccc2)ccn1S(=O)(=O)c1ccc2ccccc2c1 [CBK106623],78.8165
2,Cc1cc(CNC(=O)c2cc3ccccc3oc2=O)c2ccccc2n1 [CBK269834],122.417
3,Cc1nc(C)n(CC(=O)NCCCc2ccc(Cl)cc2)n1 [CBK281559],111.316
4,O=C(C1=C(O)C(=O)N(CCN2CCOCC2)C1c1cccc(Br)c1)c1ccco1 (stereo not drawn) [CBK264490],138.963
5,c1ccc(CN(Cc2ccccc2)Cn2c3ccccc3c3ccccc32)cc1 [CBK263575],112.956
6,O=C1CCCN1CCC(=O)N1CCCC1c1nc2ccccc2[nH]1 (stereo not drawn) [CBK283981],106.301
7,Cn1c(=O)c2c(ncn2CC(=O)Nc2ccc3ccccc3c2)n(C)c1=O [CBK133722],91.6691
8,Fc1ccc(Sc2ccc(C(F)(F)F)cn2)cc1 [CBK115235],173.185
9,CCn1cc(C(=O)N2CCCC2c2nc3ccccc3[nH]2)c(C)n1 (stereo not drawn) [CBK283777],117.51
10,COc1cc(Nc2cncc(-c3ccc(O)cc3)n2)c(Cl)cc1C(=O)NCCCN(C)C [CBK122651],131.047
11,CC(C)[C@H](CO)n1c(=O)[nH]c2ncc(-c3cccc4ccccc34)nc21 [CBK064985],174.013
12,Cc1ccc(C(=O)NCC2COc3ccccc3O2)c(N2CCOCC2)n1 (stereo not drawn) [CBK076519],95.4392
13,Cc1nn(Cc2ccc(C(=O)N3CCN(Cc4ccccc4)CC3)o2)c(C)c1Br [CBK265796C],125.415
14,CCn1cc(NCc2ccccc2Cl)c(C(=O)O)n1 [CBK286807],107.84
15,O=C1N[C@@H]2CCN(C(=O)C3CC3)[C@@H]2C(=O)N1c1ccc(F)cc1 [CBK289324],137.867
16,O=C(Nc1ccc2ncccc2c1)c1cccnc1 [CBK159820],94.2531
17,Cc1cc(C)n(C2CCN(Cc3ccc(-n4ccnc4C)cc3)CC2)n1 [CBK281976],102.804
18,NC(=O)c1[nH]nc(C2OC(CO)C(O)C2O)c1O (stereo not drawn) [CBK201236],45.2161
19,CS(=O)(=O)Nc1nccnc1OC1CCN(CCCC#N)CC1 [CBK084276],90.6303
20,C[C@H](NC(=O)C1CC(=O)N(c2ccc(F)cc2)C1)C(=O)N1CCC(C(=O)O)CC1 (stereo partly drawn) [CBK286733],133.818
21,Cc1ccc(N(CC(=O)Nc2cccc3cccnc23)S(=O)(=O)c2ccc(C)cc2)cc1 [CBK262201],89.4892
22,Oc1ccc(/C=N/N(Cc2ccccc2)Cc2ccccc2)cc1 [CBK261414],112.348
23,CCN1CC(C(=O)N2CCCC(CN(C)C)C2)CC1=O (stereo not drawn) [CBK282064],99.0256
24,Cc1cc2cc(CN(CC3CCCO3)C(=O)C3CC3)c(Cl)nc2cc1C (stereo not drawn) [CBK109881],94.7983
25,CN(C)S(=O)(=O)c1cccc(C(=O)NCCc2ccccc2)c1 [CBK267793],137.656

# Molecules listed so far with an aryl thioether with sulfur outside any ring (2):
row,Structure (SMILES),% of control remaining [%]
9,c1ccc(CSc2nnc(COc3cccc4ccccc34)n2Cc2ccccc2)cc1 [CBK267215],118.639
8,Fc1ccc(Sc2ccc(C(F)(F)F)cn2)cc1 [CBK115235],173.185

# Reference: paper PMC12040169 (PLOS Biology, 2025)
